# Hit rate of the full screen: of about 360,000 compounds, about 7,500 (2.1%) were called active. Inconclusive results, whose numbers are uncertain, are shown with a selection of clear calls. The call rests on the fitted dose curve; in most records, active means well fitted inhibition curve with a large enough effect; inconclusive means small, poorly fitted or top-dose-only effect, or effect the other way; inactive means flat fitted curve, though single readings scatter. A potency beside an inconclusive call is a rough fit, not a confirmed value.
# Experiment: Nrf2 qHTS screen for inhibitors; further: nearly all actives have a fitted effect of over 60% in size
# Settings: A549 ARE-Fluc reporter, luciferase luminescence, 18-24 h; series mostly up to 46 µM
# In short: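 Nrf2 activity is the BugLite luminescence, read 15 min after reagent at room temperature, following CellTiter-Fluor cytotoxicity readout (30 min, 37C). Compound titrations were applied for 18-24 h to 5000 A549 ARE_Fluc cells/well in 5% FBS OPTI-MEM.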
# Potency means the concentration at half of the fitted maximal effect.
row,Compound,Potency
1,COc1ccc(C2=C(C)C(N3CCC(C(=O)NCc4ccco4)CC3)=NS2(=O)=O)cc1,"inconclusive: 29.1 µM [activator, single point]"
2,Cc1cc(C(=O)N2CCCC(C(=O)c3ccc(Cl)cc3C)C2)no1 (configuration not stated),"inconclusive: 32.6 µM [falling, partial curve, poor fit]"
3,Cc1ccc(C(=O)N=c2sccn2C)o1,"inconclusive: 6.51 µM [activator, partial curve, poor fit]"
4,Cc1ccc(CNC(=O)CSCc2nc(-c3ccc(Cl)cc3)oc2C)cc1,active: 20.6 µM
5,CCN(CC)c1ccc(NC(=O)c2ccccc2F)cc1,"inconclusive: 0.092 µM [activator, full curve]"
6,C/C(=N\OCC(=O)N/N=C/c1ccccc1O)c1cccs1,"inconclusive: 29.1 µM [falling, single point]"
7,Cc1onc(-c2ccccc2)c1C(=O)Nc1ccccc1N1CCOCC1,inactive
8,C=CCNC(=O)c1ccccc1NC(=O)c1cccc2ccccc12,"inconclusive: 6.51 µM [activator, single point]"
9,O=C(NCC(c1ccco1)N1CCCC1)c1ccc(S(=O)(=O)Nc2ccccc2F)cc1 (configuration not stated),"inconclusive: 20.6 µM [falling, partial curve]"
10,c1ccc(N2OCC3Cn4c(nc5ccccc54)C32)cc1 (configuration not stated),"inconclusive: 29.1 µM [activator, single point]"
11,CCc1ccccc1NC(=O)Cn1cc(C(=O)c2ccc(Cl)cc2)c(=O)c2ccc(C)nc21,"inconclusive: 13 µM [activator, partial curve]"
12,Cc1ccccc1NC(=O)c1ccccn1,"inconclusive: 7.31 µM [activator, partial curve, poor fit]"
13,Cc1cc2[nH]c3c(=O)n(Cc4ccccc4F)ncc3c2s1,inactive
14,CCOC(=O)Nc1cc2c(c(N)n1)N=C(c1ccccc1)CN2,"inconclusive: 25.9 µM [activator, partial curve, poor fit]"
15,O=C(/C=C/c1ccc([N+](=O)[O-])cc1)Nc1cccnc1,"inconclusive: 0.517 µM [activator, full curve]"
16,Cc1ccc(C)c(N2CCN(C(=O)CCS(=O)(=O)c3ccc4c(c3)NC(=O)C(C)S4)CC2)c1 (configuration not stated),active: 6.51 µM
17,COc1cc2c(cc1OC)-c1cc(Nc3ccccc3C)nc(=O)n1CC2,"inconclusive: 29.1 µM [falling, single point]"
18,CCOC(=O)/C=C/C(=O)OCC(=O)Nc1ccc(C)cc1,"inconclusive: 20.6 µM [activator, single point]"
19,O=C(/C=C/c1cccs1)NCc1ccccc1,"inconclusive: 16.4 µM [activator, partial curve, poor fit]"
20,Cc1nc(NC(=O)/C=C/c2ccccc2)sc1C(=O)Nc1ccc(Cl)cc1,"inconclusive: 14.6 µM [falling, partial curve, poor fit]"
21,O=c1[nH]cnc2cc(-c3ccc(Br)cc3)sc12,"inconclusive: 1.84 µM [activator, full curve, poor fit]"
22,CCOC(=O)c1sc(NC(=O)CSc2nc3c(c(=O)n2-c2ccc(C)cc2)SCC3)c(C(=O)OCC)c1C,"inconclusive: 2.31 µM [falling, full curve, poor fit]"
23,COc1ccc(CNCCNC(=O)c2ccco2)c(OC)c1OC,inactive

row,Compound,Potency
1,Cc1ccc(CN(C(=O)c2cc(=O)c3cc(C)cc(C)c3o2)C2CCS(=O)(=O)C2)cc1 (configuration not stated),"inconclusive: 8.2 µM [falling, partial curve, poor fit]"
2,CCOC(=O)Nc1c(C(=O)OC)[nH]c2cc(OC)ccc12,inactive
3,Cc1cc(C)cc(-c2nnc(SCC(=O)Nc3cc(C)on3)o2)c1,"inconclusive: 18.4 µM [activator, partial curve, poor fit]"
4,CCC1Sc2ccc(S(=O)(=O)Nc3ccc(OC)cc3)cc2NC1=O (configuration not stated),"inconclusive: 8.2 µM [falling, partial curve]"
5,CCCCn1c(NCc2ccccc2NS(=O)(=O)c2ccc(C)cc2)nc2ccccc21,"inconclusive: 10.3 µM [falling, partial curve]"
6,COC(=O)c1ccc(-c2ccco2)n1Cc1ccccc1Cl,inactive
7,COc1cccc(-c2ccnc3c(-c4ccccc4)c(C)nn23)c1,"inconclusive: 5.8 µM [activator, single point]"
8,Cn1ccnc1SCC(=O)Nc1ccc2ccccc2c1,"inconclusive: 20.6 µM [activator, partial curve]"
9,CC(=O)Oc1c(Cl)c(N2CCOCC2)c(OC(C)=O)c2ccccc12,"inconclusive: 20.6 µM [activator, single point]"
10,CCOc1ccc(NC(=O)N2CCC(CN3CCC(C)CC3)CC2)cc1,"inconclusive: 16.4 µM [activator, partial curve, poor fit]"
11,CCCOc1ccc(Cn2cnc3ccccc32)cc1,"inconclusive: 20.6 µM [falling, single point]"
12,CCN(CC)S(=O)(=O)c1cccc(NC(=O)COC(=O)c2cc(C)oc2C)c1,inactive
13,N#CC1=C(SCc2ccccc2)NC(=O)CC1c1ccco1 (configuration not stated),"inconclusive: 11.6 µM [falling, partial curve, poor fit]"
14,COc1ccc(-c2cc(C(=O)NCCc3ccc(Cl)cc3)[nH]n2)cc1,"inconclusive: 18.4 µM [activator, partial curve, poor fit]"
15,COC(=O)N(C)c1nc2ccccc2s1,"inconclusive: 20.6 µM [activator, partial curve]"
16,CCOC(=O)c1c(/N=C/c2cc(OC)cc([N+](=O)[O-])c2O)sc(C)c1C,inactive
17,CCC(CC)c1nnc(NC(=O)CCS(=O)(=O)Cc2ccccc2)s1,"inconclusive: 25.9 µM [falling, single point]"
18,CCOc1ccc(CN(C(=O)c2oc3ccccc3c2C)C2CCS(=O)(=O)C2)cc1 (configuration not stated),"inconclusive: 14.6 µM [falling, partial curve, poor fit]"
19,CSC1=NC(C)(C)C=C(/C=C/c2c(Cl)cccc2Cl)N1,inactive
20,Cc1cc(C)c(S(=O)(=O)Nc2ccccc2)c(C)c1,inactive
21,Cc1ccc2nc(-c3ccc(NC(=O)COC(=O)c4ccc(Br)o4)cc3)sc2c1,"inconclusive: 29.1 µM [falling, single point]"
22,Cc1cc(OCCN2CCOCC2)ccc1Cl,"inconclusive: 29.1 µM [activator, single point]"
23,Cc1ccc(S(=O)(=O)c2cnc(SCC(=O)Nc3ccccc3C(F)(F)F)[nH]c2=O)cc1C,inactive

# Quoted from above for reference:
row,Compound,Potency
8,Cn1ccnc1SCC(=O)Nc1ccc2ccccc2c1,"inconclusive: 20.6 µM [activator, partial curve]"
9,CC(=O)Oc1c(Cl)c(N2CCOCC2)c(OC(C)=O)c2ccccc12,"inconclusive: 20.6 µM [activator, single point]"
10,CCOc1ccc(NC(=O)N2CCC(CN3CCC(C)CC3)CC2)cc1,"inconclusive: 16.4 µM [activator, partial curve, poor fit]"

# More entries:

row,Compound,Potency
1,Cc1ccc(/C=N/NC(=O)c2cc(-c3ccccc3)nc3ccccc23)o1,"inconclusive: 9.2 µM [activator, partial curve, poor fit]"
2,CCN(CC)C(=O)[C@H]1C[C@H](CC(=O)NCCCOC)C(=O)N2CCc3c([nH]c4cc(-c5ccco5)ccc34)[C@]12C,"inconclusive: 11.6 µM [falling, partial curve, poor fit]"
3,O=C1C=C(N2CCOCC2)c2ccccc2C1=O,active: 20.6 µM
4,Cc1cccc(N(C(=O)CNC(=O)c2ccco2)C(C(=O)NC2CCCCC2)c2cccnc2)c1 (configuration not stated),inactive
5,COC(=O)C1(O)CC(C(C)C)=NN1C(=O)c1ccccc1 (configuration not stated),"inconclusive: 9.2 µM [activator, partial curve, poor fit]"
6,NS(=O)(=O)c1cc(C(=O)Nc2ccc3c(c2)OCCCO3)ccc1Cl,"inconclusive: 29.1 µM [activator, single point]"
7,O=C(N/N=C/c1c[nH]c2ccccc12)c1ccncc1,"inconclusive: 10.3 µM [activator, partial curve, poor fit]"
8,O=C(COC(=O)C1(c2ccc(Cl)cc2)CCCC1)NC1CCS(=O)(=O)C1 (configuration not stated),"inconclusive: 7.31 µM [falling, partial curve]"
9,Cc1ccc(C(=O)NNC2=Nc3cccc4cccc2c34)cc1,inactive
10,CC1CCCCN1C(=O)c1ccc(NC(=O)c2ccccc2Cl)cc1 (configuration not stated),"inconclusive: 3.66 µM [falling, full curve]"
11,CC(Oc1ccc(Cl)cc1Cl)C(=O)NC1=NN(c2ccccc2)C(=O)C1 (configuration not stated),inactive
12,O=C(Nc1ccc2c(c1)OCCO2)C1CCCN1S(=O)(=O)c1cccc2cccnc12 (configuration not stated),"inconclusive: 1.64 µM [activator, full curve, poor fit]"
13,CC(=NNC(=S)N1CC2CCC(CC2)C1)c1ccncn1,active: 1.3 µM
14,CN(C)c1ccc(NC(=O)CSc2nc(-c3ccco3)cc(C(F)(F)F)n2)cc1,inactive
15,Cc1ccc(OCC(=O)c2c(N)n(C)c(=O)n(C)c2=O)c([N+](=O)[O-])n1,"inconclusive: 13 µM [activator, partial curve, poor fit]"
16,CCC1=NN(C(=O)c2cccc(Br)c2)C(O)(c2ccc(Br)cc2)C1 (configuration not stated),"inconclusive: 23.1 µM [falling, partial curve, poor fit]"
17,Cc1ccccc1C(=O)Oc1cc(-c2ccc3c(c2)OCO3)cc(=O)c2c(C)oc(C)c12,inactive
18,COCCCNC(=O)C1CCCCN1S(=O)(=O)c1ccc(F)cc1 (configuration not stated),"inconclusive: 0.461 µM [falling, full curve]"
19,CCCN(CCC)S(=O)(=O)c1ccc(C(=O)NCc2n[nH]c(=S)n2-c2ccc(Cl)c(Cl)c2)cc1,"inconclusive: 32.6 µM [falling, partial curve, poor fit]"
20,Cc1cc(C)c(C(=O)N2CCCC(CNS(=O)(=O)N(C)C)C2)o1 (configuration not stated),"inconclusive: 29.1 µM [activator, single point]"
21,O=C(O)c1ccc(/C=N/N2CCN(C3c4ccccc4-c4ccccc43)CC2)cc1,"inconclusive: 8.2 µM [falling, partial curve, poor fit]"

# Entries listed so far that contain a CF3 group:
row,Compound,Potency
23,Cc1ccc(S(=O)(=O)c2cnc(SCC(=O)Nc3ccccc3C(F)(F)F)[nH]c2=O)cc1C,inactive
14,CN(C)c1ccc(NC(=O)CSc2nc(-c3ccco3)cc(C(F)(F)F)n2)cc1,inactive

# — PubChem BioAssay AID504444 (National Center for Advancing Translational Sciences (NCATS), 2011)
